PubChem BioAssay AID1259254, NCATS | 2017

Aim: 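Finding genes that stop cells copying their DNA twice in one cycle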 (primary screen)
Cell system: human HCT116 colorectal cancer cells
Reagents: single siRNA against human genes
Timing: 3 days
Measured: 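Imaged Hoechst DNA stain sorts each cell into a cycle phase by DNA amount; per plate, G2 fraction set to 0% for non-targeting and 100% for GMNN siRNA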
Direction: G2 robust z-score: higher = more G2 cells, more excess DNA replication
Active means: 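An siRNA counts as active if its G2 robust z-score lies at least 5 MADs above the screen median; here such calls match roughly 38% of GMNN control or more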
This is an unselected part of about 59,000 reagents. About 1,550 of them (2.6%) were called active. 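G2 share is only a proxy for re-replication; each gene was hit by three separate siRNAs, and active genes were retested.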 Reagents against one gene are numbered here. Further read-outs or replicates are left out here. Not given: the amount of reagent.

G2 robust z-score, by gene and reagent
UBE2Q2P1 (UBE2Q2 pseudogene 1): #1 2.2 inactive; #2 9.08 active; #3 0.569 inactive
SVIP (small VCP interacting protein): #1 -0.062 inactive; #2 0.27 inactive; #3 0.0126 inactive
CPEB4 (cytoplasmic polyadenylation element binding protein 4): #1 3.61 inactive; #2 3.29 inactive; #3 1.37 inactive
NBPF9 (NBPF member 9): #1 -0.238 inactive; #2 -0.974 inactive; #3 -1.08 inactive

Laid out differently: results already given.
SVIP (small VCP interacting protein) #2
- G2 robust z-score: 0.27
- outcome: inactive

SVIP (small VCP interacting protein) #3
- G2 robust z-score: 0.0126
- outcome: inactive

Next records:
G2 robust z-score, by gene and reagent
TGOLN2 (trans-golgi network protein 2): #1 1.88 inactive; #2 3.16 inactive; #3 0.426 inactive
LHFPL1 (LHFPL tetraspan subfamily member 1): #1 2.32 inactive; #2 2.04 inactive; #3 -0.417 inactive
OR2T11 (olfactory receptor family 2 subfamily T member 11): #1 0.868 inactive; #2 0.213 inactive; #3 -0.491 inactive
LY6E (lymphocyte antigen 6 family member E): #1 1.45 inactive; #2 0.185 inactive; #3 -0.885 inactive
GSTA1 (glutathione S-transferase alpha 1): #1 -0.0442 inactive; #2 -0.83 inactive; #3 0.24 inactive
MED10 (mediator complex subunit 10): #1 -1.16 inactive; #2 0.972 inactive; #3 -0.421 inactive
